In the assay the target is T1, CREB regulated transcription coactivator 1 (Crtc1-Flag) (UniProt Q68ED7).
T1 sequence: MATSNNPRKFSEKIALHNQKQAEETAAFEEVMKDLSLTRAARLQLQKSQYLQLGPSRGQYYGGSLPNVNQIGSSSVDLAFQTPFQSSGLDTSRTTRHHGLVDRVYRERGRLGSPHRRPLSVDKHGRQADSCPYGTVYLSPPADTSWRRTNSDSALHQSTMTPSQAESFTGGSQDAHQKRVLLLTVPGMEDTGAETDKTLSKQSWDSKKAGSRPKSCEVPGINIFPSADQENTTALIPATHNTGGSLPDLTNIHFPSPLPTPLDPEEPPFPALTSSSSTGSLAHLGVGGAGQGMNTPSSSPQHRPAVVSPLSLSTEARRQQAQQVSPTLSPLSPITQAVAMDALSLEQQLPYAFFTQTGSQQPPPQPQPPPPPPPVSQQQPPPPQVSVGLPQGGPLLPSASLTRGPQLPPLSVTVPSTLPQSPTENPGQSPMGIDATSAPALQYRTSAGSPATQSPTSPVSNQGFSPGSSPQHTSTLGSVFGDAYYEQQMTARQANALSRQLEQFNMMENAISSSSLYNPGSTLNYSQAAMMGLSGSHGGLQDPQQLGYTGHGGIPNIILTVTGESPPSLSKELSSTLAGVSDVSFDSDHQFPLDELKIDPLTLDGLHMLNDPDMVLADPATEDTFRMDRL
The assay is described as follows: co-IP; Crtc1-Flag and Pparγ-HA co-transfected into 293T cells; lysate in IP lysis buffer, pre-cleared, precipitated with Flag or HA primary antibody overnight at 4°C and protein G agarose beads; western blot. (Immunoblotting shows a protein as a band on a membrane.)

Amino acid sequences for entries named in this document (tags omitted).
UniProt P37238: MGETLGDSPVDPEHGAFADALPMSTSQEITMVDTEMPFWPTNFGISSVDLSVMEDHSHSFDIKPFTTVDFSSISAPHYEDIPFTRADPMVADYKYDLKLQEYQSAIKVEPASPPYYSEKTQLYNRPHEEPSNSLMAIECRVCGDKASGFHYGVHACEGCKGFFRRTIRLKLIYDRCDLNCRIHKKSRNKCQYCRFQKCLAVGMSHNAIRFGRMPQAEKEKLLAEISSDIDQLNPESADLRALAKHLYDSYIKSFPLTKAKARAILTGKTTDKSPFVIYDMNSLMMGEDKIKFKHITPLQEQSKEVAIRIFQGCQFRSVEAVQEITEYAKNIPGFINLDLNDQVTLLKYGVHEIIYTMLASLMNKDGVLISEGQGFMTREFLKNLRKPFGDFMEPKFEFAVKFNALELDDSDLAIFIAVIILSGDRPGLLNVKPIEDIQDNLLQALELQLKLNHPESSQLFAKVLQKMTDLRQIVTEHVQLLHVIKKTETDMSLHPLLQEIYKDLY

From PMC8075410 come the findings set out here.

Results are given in words; binding and its absence hold for the method and conditions named. In cells and extracts the contact can be indirect. Sequences can lack the tags named with a protein.

With “Peroxisome proliferator activated receptor γ (Pparγ-HA) (from UniProt P37238 1-505)”, the binding result is reported as “no binding”.
